Measurements as given in PMC13615500.
Results are given in words; binding and its absence hold for the method and conditions named. Binding seen in cells or lysates may run through a third protein. A yes stands for co-enrichment or nearness to the bait. Other partners may have been found. Where a sequence is shown, tags or fusion partners need not be part of it. Blank lines part the entries; values can stand above or below the binder they belong to.

Target: T1, CCDC12, endogenously tagged with C-terminal 9×FLAG (human (endogenous in HEK293T)) (UniProt Q8WUD4)
T1 sequence: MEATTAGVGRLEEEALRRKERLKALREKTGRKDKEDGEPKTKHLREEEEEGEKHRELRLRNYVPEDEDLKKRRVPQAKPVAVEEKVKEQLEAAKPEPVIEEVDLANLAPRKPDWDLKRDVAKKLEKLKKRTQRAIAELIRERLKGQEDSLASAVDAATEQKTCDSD
Assay: affinity purification with mass spectrometry; lysate of endogenously 9×FLAG-tagged HEK293T cells (0.1% NP-40, 0.1% Tween 20, 10% glycerol, 100 mM KCl, 5 mM MgCl2, 20 mM Tris-HCl pH 8.0, sonicated), 2 mg protein on anti-DYKDDDDK magnetic agarose beads 2 h at 4°C, eluted with 3xFLAG peptide; four biological replicates, parental HEK293T as control; hits: mean ZMADEX ≥3 and p ≤ 0.01

B1: CRNKL1 (protein, UniProt Q9BZJ0 1-848)
chain: MTATVENLTFQKDTLGNAVDKNTSRLELRSYSLAGRHGSTEPLVLAWSSQFRRLTWGCALDALHRSPCVAASQHGVTHLIRSSRTPHSTRCRKEDAQPGHHGNGAASVTAQARGQRSVLQVPLPVPRSCLFSESFVVSVSSQSRFLASVPGTGVQRSTAADMAASTAAGKQRIPKVAKVKNKAPAEVQITAEQLLREAKERELELLPPPPQQKITDEEELNDYKLRKRKTFEDNIRKNRTVISNWIKYAQWEESLKEIQRARSIYERALDVDYRNITLWLKYAEMEMKNRQVNHARNIWDRAITTLPRVNQFWYKYTYMEEMLGNVAGARQVFERWMEWQPEEQAWHSYINFELRYKEVDRARTIYERFVLVHPDVKNWIKYARFEEKHAYFAHARKVYERAVEFFGDEHMDEHLYVAFAKFEENQKEFERVRVIYKYALDRISKQDAQELFKNYTIFEKKFGDRRGIEDIIVSKRRFQYEEEVKANPHNYDAWFDYLRLVESDAEAEAVREVYERAIANVPPIQEKRHWKRYIYLWINYALYEELEAKDPERTRQVYQASLELIPHKKFTFAKMWILYAQFEIRQKNLSLARRALGTSIGKCPKNKLFKVYIELELQLREFDRCRKLYEKFLEFGPENCTSWIKFAELETILGDIDRARAIYELAISQPRLDMPEVLWKSYIDFEIEQEETERTRNLYRRLLQRTQHVKVWISFAQFELSSGKEGSLTKCRQIYEEANKTMRNCEEKEERLMLLESWRSFEEEFGTASDKERVDKLMPEKVKKRRKVQTDDGSDAGWEEYFDYIFPEDAANQPNLKLLAMAKLWKKQQQEKEDAEHHPDEDVDESES
binding: binds

B2: DHX8 (protein, UniProt Q14562 1-1220)
chain: MAVAVAMAGALIGSEPGPAEELAKLEYLSLVSKVCTELDNHLGINDKDLAEFVISLAEKNTTFDTFKASLVKNGAEFTDSLISNLLRLIQTMRPPAKPSTSKDPVVKPKTEKEKLKELFPVLCQPDNPSVRTMLDEDDVKVAVDVLKELEALMPSAAGQEKQRDAEHRDRTKKKKRSRSRDRNRDRDRDRERNRDRDHKRRHRSRSRSRSRTRERNKVKSRYRSRSRSQSPPKDRKDRDKYGERNLDRWRDKHVDRPPPEEPTIGDIYNGKVTSIMQFGCFVQLEGLRKRWEGLVHISELRREGRVANVADVVSKGQRVKVKVLSFTGTKTSLSMKDVDQETGEDLNPNRRRNLVGETNEETSMRNPDRPTHLSLVSAPEVEDDSLERKRLTRISDPEKWEIKQMIAANVLSKEEFPDFDEETGILPKVDDEEDEDLEIELVEEEPPFLRGHTKQSMDMSPIKIVKNPDGSLSQAAMMQSALAKERRELKQAQREAEMDSIPMGLNKHWVDPLPDAEGRQIAANMRGIGMMPNDIPEWKKHAFGGNKASYGKKTQMSILEQRESLPIYKLKEQLVQAVHDNQILIVIGETGSGKTTQITQYLAEAGYTSRGKIGCTQPRRVAAMSVAKRVSEEFGCCLGQEVGYTIRFEDCTSPETVIKYMTDGMLLRECLIDPDLTQYAIIMLDEAHERTIHTDVLFGLLKKTVQKRQDMKLIVTSATLDAVKFSQYFYEAPIFTIPGRTYPVEILYTKEPETDYLDASLITVMQIHLTEPPGDILVFLTGQEEIDTACEILYERMKSLGPDVPELIILPVYSALPSEMQTRIFDPAPPGSRKVVIATNIAETSLTIDGIYYVVDPGFVKQKVYNSKTGIDQLVVTPISQAQAKQRAGRAGRTGPGKCYRLYTERAYRDEMLTTNVPEIQRTNLASTVLSLKAMGINDLLSFDFMDAPPMETLITAMEQLYTLGALDDEGLLTRLGRRMAEFPLEPMLCKMLIMSVHLGCSEEMLTIVSMLSVQNVFYRPKDKQALADQKKAKFHQTEGDHLTLLAVYNSWKNNKFSNPWCYENFIQARSLRRAQDIRKQMLGIMDRHKLDVVSCGKSTVRVQKAICSGFFRNAAKKDPQEGYRTLIDQQVVYIHPSSALFNRQPEWVVYHELVLTTKEYMREVTTIDPRWLVEFAPAFFKVSDPTKLSKQKKQQRLEPLYNRYEEPNAWRISRAFRRR
binding: binds

B4: AQR (protein, UniProt O60306 1-1485)
chain: MAAPAQPKKIVAPTVSQINAEFVTQLACKYWAPHIKKKSPFDIKVIEDIYEKEIVKSRFAIRKIMLLEFSQYLENYLWMNYSPEVSSKAYLMSICCMVNEKFRENVPAWEIFKKKPDHFPFFFKHILKAALAETDGEFSLHEQTVLLLFLDHCFNSLEVDLIRSQVQQLISLPMWMGLQLARLELELKKTPKLRKFWNLIKKNDEKMDPEAREQAYQERRFLSQLIQKFISVLKSVPLSEPVTMDKVHYCERFIELMIDLEALLPTRRWFNTILDDSHLLVHCYLSNLVRREEDGHLFSQLLDMLKFYTGFEINDQTGNALTENEMTTIHYDRITSLQRAAFAHFPELYDFALSNVAEVDTRESLVKFFGPLSSNTLHQVASYLCLLPTLPKNEDTTFDKEFLLELLVSRHERRISQIQQLNQMPLYPTEKIIWDENIVPTEYYSGEGCLALPKLNLQFLTLHDYLLRNFNLFRLESTYEIRQDIEDSVSRMKPWQSEYGGVVFGGWARMAQPIVAFTVVEVAKPNIGENWPTRVRADVTINLNVRDHIKDEWEGLRKHDVCFLITVRPTKPYGTKFDRRRPFIEQVGLVYVRGCEIQGMLDDKGRVIEDGPEPRPNLRGESRTFRVFLDPNQYQQDMTNTIQNGAEDVYETFNIIMRRKPKENNFKAVLETIRNLMNTDCVVPDWLHDIILGYGDPSSAHYSKMPNQIATLDFNDTFLSIEHLKASFPGHNVKVTVEDPALQIPPFRITFPVRSGKGKKRKDADVEDEDTEEAKTLIVEPHVIPNRGPYPYNQPKRNTIQFTHTQIEAIRAGMQPGLTMVVGPPGTGKTDVAVQIISNIYHNFPEQRTLIVTHSNQALNQLFEKIMALDIDERHLLRLGHGEEELETEKDFSRYGRVNYVLARRIELLEEVKRLQKSLGVPGDASYTCETAGYFFLYQVMSRWEEYISKVKNKGSTLPDVTEVSTFFPFHEYFANAPQPIFKGRSYEEDMEIAEGCFRHIKKIFTQLEEFRASELLRSGLDRSKYLLVKEAKIIAMTCTHAALKRHDLVKLGFKYDNILMEEAAQILEIETFIPLLLQNPQDGFSRLKRWIMIGDHHQLPPVIKNMAFQKYSNMEQSLFTRFVRVGVPTVDLDAQGRARASLCNLYNWRYKNLGNLPHVQLLPEFSTANAGLLYDFQLINVEDFQGVGESEPNPYFYQNLGEAEYVVALFMYMCLLGYPADKISILTTYNGQKHLIRDIINRRCGNNPLIGRPNKVTTVDRFQGQQNDYILLSLVRTRAVGHLRDVRRLVVAMSRARLGLYIFARVSLFQNCFELTPAFSQLTARPLHLHIIPTEPFPTTRKNGERPSHEVQIIKNMPQMANFVYNMYMHLIQTTHHYHQTLLQLPPAMVEEGEEVQNQETELETEEEAMTVQADIIPSPTDTSCRQETPAFQTDTTPSETGATSTPEAIPALSETTPTVVGAVSAPAEANTPQDATSAPEETK
binding: binds

B6: CWC15 (protein, UniProt Q9P013 1-229)
chain: MTTAARPTFEPARGGRGKGEGDLSQLSKQYSSRDLPSHTKIKYRQTTQDAPEEVRNRDFRRELEERERAAAREKNRDRPTREHTTSSSVSKKPRLDQIPAANLDADDPLTDEEDEDFEEESDDDDTAALLAELEKIKKERAEEQARKEQEQKAEEERIRMENILSGNPLLNLTGPSQPQANFKVKRRWDDDVVFKNCAKGVDDQKKDKRFVNDTLRSEFHKKFMEKYIK
binding: binds

Now from value to binder:

binding: binds
B3: ESS2 (protein, UniProt Q96DF8 1-476)
chain: METPGASASSLLLPAASRPPRKREAGEAGAATSKQRVLDEEEYIEGLQTVIQRDFFPDVEKLQAQKEYLEAEENGDLERMRQIAIKFGSALGKMSREPPPPYVTPATFETPEVHAGTGVVGNKPRPRGRGLEDGEAGEEEEKEPLPSLDVFLSRYTSEDNASFQEIMEVAKERSRARHAWLYQAEEEFEKRQKDNLELPSAEHQAIESSQASVETWKYKAKNSLMYYPEGVPDEEQLFKKPRQVVHKNTRFLRDPFSQALSRCQLQQAAALNAQHKQGKVGPDGKELIPQESPRVGGFGFVATPSPAPGVNESPMMTWGEVENTPLRVEGSETPYVDRTPGPAFKILEPGRRERLGLKMANEAAAKNRAKKQEALRRVTENLASLTPKGLSPAMSPALQRLVSRTASKYTDRALRASYTPSPARSTHLKTPASGLQTPTSTPAPGSATRTPLTQDPASITDNLLQLPARRKASDFF

binding: binds
B5: PLRG1 (protein, UniProt O43660 1-514)
chain: MVEEVQKHSVHTLVFRSLKRTHDMFVADNGKPVPLDEESHKRKMAIKLRNEYGPVLHMPTSKENLKEKGPQNATDSYVHKQYPANQGQEVEYFVAGTHPYPPGPGVALTADTKIQRMPSESAAQSLAVALPLQTKADANRTAPSGSEYRHPGASDRPQPTAMNSIVMETGNTKNSALMAKKAPTMPKPQWHPPWKLYRVISGHLGWVRCIAVEPGNQWFVTGSADRTIKIWDLASGKLKLSLTGHISTVRGVIVSTRSPYLFSCGEDKQVKCWDLEYNKVIRHYHGHLSAVYGLDLHPTIDVLVTCSRDSTARIWDVRTKASVHTLSGHTNAVATVRCQAAEPQIITGSHDTTIRLWDLVAGKTRVTLTNHKKSVRAVVLHPRHYTFASGSPDNIKQWKFPDGSFIQNLSGHNAIINTLTVNSDGVLVSGADNGTMHLWDWRTGYNFQRVHAAVQPGSLDSESGIFACAFDQSESRLLTAEADKTIKVYREDDTATEETHPVSWKPEIIKRKRF
